Source: publication PMC3492431

Biological target: T1, mouse filensin (mouse (endogenous in lens)) (UniProt A2AMT1)
T1 sequence: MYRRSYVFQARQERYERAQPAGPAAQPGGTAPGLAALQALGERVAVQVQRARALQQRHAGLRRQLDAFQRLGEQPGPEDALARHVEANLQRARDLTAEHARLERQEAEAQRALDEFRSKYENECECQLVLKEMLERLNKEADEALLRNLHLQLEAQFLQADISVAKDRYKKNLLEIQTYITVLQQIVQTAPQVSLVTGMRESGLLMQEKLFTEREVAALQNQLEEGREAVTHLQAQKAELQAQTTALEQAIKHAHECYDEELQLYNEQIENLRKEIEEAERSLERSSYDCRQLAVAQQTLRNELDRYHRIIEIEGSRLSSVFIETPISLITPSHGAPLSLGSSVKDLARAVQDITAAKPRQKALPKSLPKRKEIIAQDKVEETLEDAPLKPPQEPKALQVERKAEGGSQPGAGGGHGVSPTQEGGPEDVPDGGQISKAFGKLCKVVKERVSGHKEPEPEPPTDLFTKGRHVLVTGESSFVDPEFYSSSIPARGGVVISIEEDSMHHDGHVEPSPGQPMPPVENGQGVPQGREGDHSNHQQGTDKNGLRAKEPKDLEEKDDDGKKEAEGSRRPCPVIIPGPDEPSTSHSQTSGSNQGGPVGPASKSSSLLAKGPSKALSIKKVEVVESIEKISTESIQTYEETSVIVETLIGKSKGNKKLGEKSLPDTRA
Assay: far-Western, overlay or dot blot; mouse lens extracts (CP49+/+ and CP49-/-) separated by SDS-PAGE and transferred to nitrocellulose; blots incubated overnight at 4°C with 2 µg/ml purified recombinant Tmod in OverWash buffer (80 mM KCl, 2 mM MgCl2, 1 mM EGTA, 0.2% Triton X-100, 20 mM Hepes, pH 7.3) + 2% BSA; bound Tmod detected with antisera to Tmod1 or Tmod4; only the binder purified

binding: binds
Substance: purified recombinant chicken Tmod4 (tropomodulin 4)

Results are given in words; binding and its absence hold for the method and conditions named. Binding can be weak; no strength is given.
